Some of these results come from one statement about several compounds together.
Tested on: Pyricularia oryzae
Format: in vivo
Settings: rice, protective, application rate 125 g/ha, evaluation 4 days after inoculation

## CO/N=C(/C1=NOCCO1)c1ccccc1CO/N=C(\C)c1nn(C)c2ccccc12 [Example 1, O-{2-[(5,6-dihydro-[1,4,2]dioxazin-3-yl)-methoxyiminomethyl]-benzyl}1-(1-methyl-1H-indazol-3-yl)-ethanone-oxime]
  efficacy: ≥ 90%
